Results deposited as PubChem BioAssay AID1159578 (Peter MacCallum Cancer Centre, 2015)
Aim: 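Genome-wide hunt for genes controlling movement of lymphatic endothelial cells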 (primary screen). Cells: human lymphatic endothelial cells. Reagent: siRNA pool against human genes, 40 nM. Duration: 48 h after transfection. Measurement: 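High-content imaging of dye-stained cells in a scratch assay measures filled wound area and nuclei per well; duplicate means given as ratio to mock and robust z-score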. Direction: migration robust z-score: higher = faster migration into the scratch; nuclei per well: higher = more cells in the well. Active means: 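Migration changed when robust z exceeds 2 or falls below -2 and mean nuclei number is at least 3300; otherwise not called changed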. Meaning of the calls: active = migration changed; inactive = no migration change, or too few cells.
In all, the deposit lists about 18,000 reagents; below is an unselected part. About 1,030 of them (5.7%) count as active. 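Inactive calls also include pools with fewer than 3300 nuclei, whose migration was not assessed.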 The raw values are shown without normalisation. Entries without a mark were called inactive. Not all columns of the deposit are shown.

Which result is listed for FAM167A [SID255361050]?
migration robust z-score: -0.15; migration class with cell-count check: migration z between -2 and 2; enough cells; nuclei per well, duplicate mean: 5401

What is on record for IL22RA2 [SID255362372]?
migration robust z-score: 1.09; migration class with cell-count check: migration z between -2 and 2; enough cells; nuclei per well, duplicate mean: 5196

What is on record for STAR [SID255352660]?
migration robust z-score: 0.1; migration class with cell-count check: migration z between -2 and 2; enough cells; nuclei per well, duplicate mean: 5264

How did the screen score INHA [SID255350499]?
migration robust z-score: 0.55; migration class with cell-count check: migration z between -2 and 2; enough cells; nuclei per well, duplicate mean: 6292

What is on record for SLITRK5 [SID255356638]?
migration robust z-score: -0.26; migration class with cell-count check: migration z between -2 and 2; enough cells; nuclei per well, duplicate mean: 6030

With OSGIN1 [SID255357237], what was measured?
migration robust z-score: -0.42; migration class with cell-count check: migration z between -2 and 2; enough cells; nuclei per well, duplicate mean: 6221

For SLC47A2 [SID255363298], what does the deposit list?
migration robust z-score: -4.41 (active); migration class with cell-count check: migration z below -2; enough cells; nuclei per well, duplicate mean: 5427

What is on record for ERC2 [SID255356646]?
migration robust z-score: 0.78; migration class with cell-count check: migration z between -2 and 2; enough cells; nuclei per well, duplicate mean: 6846

How did the screen score DST [SID255348571]?
migration robust z-score: 0.22; migration class with cell-count check: migration z between -2 and 2; enough cells; nuclei per well, duplicate mean: 5679

What is on record for TENM2 [SID255359388]?
migration robust z-score: 0.28; migration class with cell-count check: migration z between -2 and 2; enough cells; nuclei per well, duplicate mean: 6784

How did the screen score TAFA4 [SID255363504]?
migration robust z-score: -0.22; migration class with cell-count check: migration z between -2 and 2; enough cells; nuclei per well, duplicate mean: 6382

For RPGRIP1L [SID255356160], what was measured?
migration robust z-score: -0.9; migration class with cell-count check: migration z between -2 and 2; enough cells; nuclei per well, duplicate mean: 5287

What is on record for EMILIN2 [SID255361163]?
migration robust z-score: -1.2; migration class with cell-count check: migration z between -2 and 2; enough cells; nuclei per well, duplicate mean: 5388

With GUCY2C [SID255350106], what was measured?
migration robust z-score: -0.39; migration class with cell-count check: migration z between -2 and 2; enough cells; nuclei per well, duplicate mean: 5474

With RPS6KB1 [SID255352215], how do the results read?
migration robust z-score: -1.32; migration class with cell-count check: migration z between -2 and 2; enough cells; nuclei per well, duplicate mean: 4389

What did the screen give for MPEG1 [SID255364224]?
migration robust z-score: -0.78; migration class with cell-count check: migration z between -2 and 2; enough cells; nuclei per well, duplicate mean: 5850

With GRINA [SID255350046], how do the results read?
migration robust z-score: -1.17; migration class with cell-count check: migration z between -2 and 2; enough cells; nuclei per well, duplicate mean: 5474

For GJB2 [SID255349898], how do the results read?
migration robust z-score: -1.71; migration class with cell-count check: migration z between -2 and 2; enough cells; nuclei per well, duplicate mean: 5444

With LYST [SID255348914], what was measured?
migration robust z-score: -0.26; migration class with cell-count check: under 3300 nuclei; migration not judged; nuclei per well, duplicate mean: 1757

For RAB6C [SID255361191], how do the results read?
migration robust z-score: 1.46; migration class with cell-count check: migration z between -2 and 2; enough cells; nuclei per well, duplicate mean: 5807

How did the screen score YIPF4 [SID255361288]?
migration robust z-score: 0.32; migration class with cell-count check: migration z between -2 and 2; enough cells; nuclei per well, duplicate mean: 6031

Reformatted: results already given.
{"gene":"RPS6KB1","PubChem SID":"SID255352215","migration robust z-score":-1.32,"migration class with cell-count check":"migration z between -2 and 2; enough cells","nuclei per well, duplicate mean":4389}
{"gene":"MPEG1","PubChem SID":"SID255364224","migration robust z-score":-0.78,"migration class with cell-count check":"migration z between -2 and 2; enough cells","nuclei per well, duplicate mean":5850}
